Patent US12678472B2, “Method for selective recovery of hydrophobic compounds” (priority 2019, dated 2026)

Assay: Capture of target molecule from solution by insoluble cross-linked cyclodextrin polymer (batch slurry, supernatant measured after filtration)
Details: for mg recovered: Example 16: 20 mg CBD and 20 mg CBG, 100 mg polymer
Procedure: A standard protocol was followed in all Examples with the variances from the standard protocol as described in each Example. The standard protocol included a plurality of steps. A mass of CBD was dissolved in ethanol to form a stock solution. A reference sample of the stock solution was diluted with ethanol to obtain a target CBD or other target molecule concentration for a reference measurement. A reaction sample was taken from the remaining stock solution. A cross-linked polysaccharide was combined with the reaction sample in a ratio relative to the CBD or other target molecule concentration present in the reaction sample (by mass) as specified in Examples. The cross-linked polymer is HDI-linked cyclodextrin prepared with a ratio of 8:1 HDI to cyclodextrin.
Water is combined with the reaction sample until the reaction sample reaches a target CBD or other target molecule concentration, and a target ethanol to water ratio. The reaction mixture including the water is filtered at a cutoff size of between 75 μm to 4,000 μm aperture size, or exposed to a magnetic field with a neodymium magnet through the wall of a flask, to retrieve the cross-linked polymer bound with CBD or other target molecule concentration. Once retrieved, the cross-linked polymer is flushed with a dissociation solvent for dissolving the target molecule. The dissociation solvent applied in the examples may be methanol, ethanol, isopropanol, a mixtures of aliphatic, aromatic and CO2 fluids, DMSO, butane.
Ten milligrams of CBD were dissolved in a 10 mL mixture of 1:1 ethanol to water to produce a reaction mixture with a CBD concentration of 1 mg/mL. A 1 mL aliquot was then taken from the reaction mixture as a reference sample (t=0). One hundred milligrams of the cross-linked polymer was then combined with the reaction mixture for a polymer to CBD ratio of about 10:1 by mass. The reaction mixture was then stirred at room temperature.
One milliliter aliquots were then taken from the reaction mixture and filtered using pipette filtration at 10 minute intervals over 80 minutes (t=10, t=20, t=30, t=40, t=50, t=60, t=70, t=80, t=90). CBD capture data was obtained from the supernatant fluid of these aliquots after filtration. The data point at t=80 was obtained using syringe filtration, which may have filtered out more of the detectable CBD independently of the insoluble polysaccharide through adsorption. The t=90 time point returns to a level consistent with the time points beginning with t=30. About 15% of the CBD, or 1.7 mg was captured with a 10:1 polymer:CBD ratio.

CCCCCc1cc(O)c(C/C=C(\C)CCC=C(C)C)c(O)c1 [CBG, cannabigerol]
mg recovered: 4.8 mg

C=C(C)[C@@H]1CCC(C)=C[C@H]1c1c(O)cc(CCCCC)cc1O [CBD, cannabidiol]
percent of total CBD captured (Example 1: 1 mg/mL CBD in 1:1 ethanol:water, 10:1 polymer:CBD, room temperature): About 15% | mg of CBD captured (Example 1: 10 mg CBD, 1 mg/mL in 1:1 ethanol:water, 10:1 polymer:CBD): 1.7 mg | mg of CBD captured (Example 2: 68 mg CBD, 1 mg/mL in 1:1 ethanol:water, 683 mg polymer (10:1)): 11.6 mg | fold increase in percent CBD retention, 50:1 versus 10:1 (Example 7: 2 mg/mL CBD in 1:1 ethanol:water): 2.3 fold | CBD capture (Example 8: ethanol only, 2 mg/mL or 4 mg/mL CBD, 10:1 polymer:CBD): no significant capture | percent CBD capture (Example 10: 2 mg/mL CBD, water slowly added to 3:7 EtOH:H2O, 10:1 polymer:CBD): 98% | mg CBD captured at plateau (Example 15: 100 mg polymer, 2 mg/mL CBD in 1:1 ethanol:water, 5 to 20 mL): 3.2 mg | mg recovered: 3.4 mg | percent CBD capture (Example 18: 100 mg polymer, 2 mg/mL CBD, 3:7 ethanol:water, all CBD amounts): over 98% | mg of CBD captured (Example 21: ethanol extract of hops, 10:1 polymer:CBD): 9.6 mg | mg of CBD captured (Example 21: pure ethanol, 10:1 polymer:CBD): about 9.8 mg
